Some test systems named below: RNF141 (human); RNF34 (human); ROM1 (human); RP11-49G10.8 (human); RP2 (human); RP5-860F19.3 (human); RPA2 (human); RPA4 (human); RPAIN (human); RPE (human); RPLP2 (human); RPS27A (human); RPUSD1 (human); RRN3 (human); RSPRY1 (human); RTN2 (human); RTN4 (human); RTP2 (human).
What all share (assay): protein microarray (ProtoArray v5.0), streptavidin-Alexa Fluor 647
Holding throughout (conditions): 3'-biotin; 20 mM Tris (pH 7.5), 5 mM MgCl2, 100 mM KCl, 0.1% Tween-20, A/T-rich and random oligonucleotide blockers; temperature not stated; high values mean tight binding

The chains behind the UniProt entries cited, without tags or fusion partners. Where a name states a change or a piece, a line headed by the entry shows the natural chain unless it says otherwise.
UniProt P49247: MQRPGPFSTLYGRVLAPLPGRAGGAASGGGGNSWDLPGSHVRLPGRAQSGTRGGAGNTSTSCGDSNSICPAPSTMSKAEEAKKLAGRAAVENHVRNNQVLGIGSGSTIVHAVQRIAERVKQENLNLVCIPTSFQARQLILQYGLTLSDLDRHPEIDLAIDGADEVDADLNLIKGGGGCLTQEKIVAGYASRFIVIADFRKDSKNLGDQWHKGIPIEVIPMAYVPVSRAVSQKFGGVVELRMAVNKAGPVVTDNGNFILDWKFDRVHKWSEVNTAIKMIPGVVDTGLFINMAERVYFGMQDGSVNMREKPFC

The target in the next experiment is RPIA (UniProt P49247).
In the next experiment the target is T1, RTN1 (UniProt Q16799).
T1 sequence: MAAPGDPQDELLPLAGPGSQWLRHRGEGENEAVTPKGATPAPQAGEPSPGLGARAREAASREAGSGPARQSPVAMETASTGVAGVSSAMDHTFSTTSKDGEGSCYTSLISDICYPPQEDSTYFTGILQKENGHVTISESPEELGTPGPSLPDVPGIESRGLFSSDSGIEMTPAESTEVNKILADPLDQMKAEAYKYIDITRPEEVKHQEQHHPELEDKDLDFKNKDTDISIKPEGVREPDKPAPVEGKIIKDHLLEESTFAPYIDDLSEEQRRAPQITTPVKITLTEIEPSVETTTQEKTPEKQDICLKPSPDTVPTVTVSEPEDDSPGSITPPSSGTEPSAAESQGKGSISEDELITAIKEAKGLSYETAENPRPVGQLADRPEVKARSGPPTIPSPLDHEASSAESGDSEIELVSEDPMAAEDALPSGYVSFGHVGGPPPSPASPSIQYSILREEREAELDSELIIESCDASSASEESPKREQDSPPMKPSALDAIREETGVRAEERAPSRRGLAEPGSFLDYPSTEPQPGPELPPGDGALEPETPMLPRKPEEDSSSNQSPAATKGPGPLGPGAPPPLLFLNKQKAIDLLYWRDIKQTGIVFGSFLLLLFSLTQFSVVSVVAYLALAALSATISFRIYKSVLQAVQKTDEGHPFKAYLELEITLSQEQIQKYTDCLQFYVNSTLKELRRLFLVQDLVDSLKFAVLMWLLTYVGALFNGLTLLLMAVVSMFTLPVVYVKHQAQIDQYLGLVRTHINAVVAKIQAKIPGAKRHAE

This note sets out measurements from publication PMC5996148.

Values joined by “and” are separate entries in the source; they are usually repeats but may differ in a detail not shown here. Equal values may be shown once. This is one part of the list. For some assays here: The source does not settle which construct or isoform was used.

For the sequence “GGGAGGCTGAGGCAGG [G4-1 biotinylated (PQS2)]”, the binding signal was -0.358 z-score with RNF141 (human); -0.319 z-score and -0.278 z-score in the experiment with RNF34 (human); -0.32 z-score with ROM1 (human); -0.338 z-score in the experiment with RP11-49G10.8 (human); -0.3 z-score in the experiment with RP2 (human); -0.333 z-score in the experiment on RP5-860F19.3 (human). Further, the binding signal with RPA2 (human) was -0.323 z-score; in the experiment with RPA4 (human), -0.34 z-score; with RPAIN (human) it was -0.319 z-score; in the experiment with RPE (human), -0.291 z-score; in the experiment with RPIA, -0.341 z-score; in the experiment with RPLP2 (human), -0.364 z-score. Further, the binding signal was -0.298 z-score with RPS27A (human); -0.301 z-score in the experiment on RPUSD1 (human); -0.345 z-score in the experiment on RRN3 (human); -0.291 z-score in the experiment with RSPRY1 (human); -0.339 z-score with RTN1; -0.302 z-score with RTN2 (human). Also, the values for the binding signal with RTN4 (human) and in the experiment on RTP2 (human) were -0.341 z-score and -0.312 z-score, respectively.
